Results on two substances are retold here after publication PMC4331745.

Sequences of proteins named here, by UniProt entry; tags and fusion partners are left off.
UniProt Q13185: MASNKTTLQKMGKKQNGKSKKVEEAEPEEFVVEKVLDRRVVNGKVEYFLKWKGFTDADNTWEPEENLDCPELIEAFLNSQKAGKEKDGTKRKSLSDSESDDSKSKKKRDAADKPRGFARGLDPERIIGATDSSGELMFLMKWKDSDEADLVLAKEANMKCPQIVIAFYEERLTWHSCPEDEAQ
UniProt P11309: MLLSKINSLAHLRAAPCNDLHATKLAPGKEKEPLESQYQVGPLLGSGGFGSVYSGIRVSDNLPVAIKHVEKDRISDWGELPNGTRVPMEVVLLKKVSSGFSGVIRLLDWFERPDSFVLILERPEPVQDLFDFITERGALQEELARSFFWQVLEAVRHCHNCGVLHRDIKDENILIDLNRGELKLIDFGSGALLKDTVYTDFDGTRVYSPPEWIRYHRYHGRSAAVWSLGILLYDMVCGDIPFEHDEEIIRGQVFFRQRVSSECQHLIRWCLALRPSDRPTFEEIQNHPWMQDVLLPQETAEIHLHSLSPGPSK

These are yes or no findings as the source states them, for the method shown. Binding seen in cells or lysates may run through a third protein. Some entries that bind do so weakly or less than the wild type.

Test [1] deals with heterochromatin protein 1γ (HP1γ) (human (endogenous in 2BS)) (UniProt Q13185). The test is described as follows: co-IP; nuclear extracts of Ras-induced senescent 2BS cells; immunoprecipitation with anti-PIM-1 or anti-HP1γ antibody, then western blot; endogenous proteins. (In general: A western blot detects proteins with antibodies after separation by electrophoresis.)
Test [2] has as its target PIM-1 (human (endogenous in 2BS)) (UniProt P11309). Described as above.

In the case of “PIM-1 (from UniProt P11309 1-313) (enzyme)”, the binding entry in test [1] was “binds”.

For the substance “heterochromatin protein 1γ (HP1γ) (from UniProt Q13185 1-183)”, the binding entry in test [2] is given as “binds”.
